Laboratory results published in PubChem BioAssay AID651768 (National Center for Advancing Translational Sciences (NCATS), 2012).
Among all 360,000 compounds or so, about 1,700 (0.47%) were called active. The inconclusive results got no clear call from the source; some entries with a clear call stand among them for comparison. Calls come from the whole dose curve; as a rule, active = well fitted inhibition curve with a large enough effect; inconclusive = small, poorly fitted or top-dose-only effect; inactive = no such curve, though single readings can be large or run the other way. Potencies of inconclusive entries are doubtful fits and often do not repeat.

By UniProt entry, the sequences of proteins in these tests, tags left out.
UniProt Q14191, whole entry, looked up: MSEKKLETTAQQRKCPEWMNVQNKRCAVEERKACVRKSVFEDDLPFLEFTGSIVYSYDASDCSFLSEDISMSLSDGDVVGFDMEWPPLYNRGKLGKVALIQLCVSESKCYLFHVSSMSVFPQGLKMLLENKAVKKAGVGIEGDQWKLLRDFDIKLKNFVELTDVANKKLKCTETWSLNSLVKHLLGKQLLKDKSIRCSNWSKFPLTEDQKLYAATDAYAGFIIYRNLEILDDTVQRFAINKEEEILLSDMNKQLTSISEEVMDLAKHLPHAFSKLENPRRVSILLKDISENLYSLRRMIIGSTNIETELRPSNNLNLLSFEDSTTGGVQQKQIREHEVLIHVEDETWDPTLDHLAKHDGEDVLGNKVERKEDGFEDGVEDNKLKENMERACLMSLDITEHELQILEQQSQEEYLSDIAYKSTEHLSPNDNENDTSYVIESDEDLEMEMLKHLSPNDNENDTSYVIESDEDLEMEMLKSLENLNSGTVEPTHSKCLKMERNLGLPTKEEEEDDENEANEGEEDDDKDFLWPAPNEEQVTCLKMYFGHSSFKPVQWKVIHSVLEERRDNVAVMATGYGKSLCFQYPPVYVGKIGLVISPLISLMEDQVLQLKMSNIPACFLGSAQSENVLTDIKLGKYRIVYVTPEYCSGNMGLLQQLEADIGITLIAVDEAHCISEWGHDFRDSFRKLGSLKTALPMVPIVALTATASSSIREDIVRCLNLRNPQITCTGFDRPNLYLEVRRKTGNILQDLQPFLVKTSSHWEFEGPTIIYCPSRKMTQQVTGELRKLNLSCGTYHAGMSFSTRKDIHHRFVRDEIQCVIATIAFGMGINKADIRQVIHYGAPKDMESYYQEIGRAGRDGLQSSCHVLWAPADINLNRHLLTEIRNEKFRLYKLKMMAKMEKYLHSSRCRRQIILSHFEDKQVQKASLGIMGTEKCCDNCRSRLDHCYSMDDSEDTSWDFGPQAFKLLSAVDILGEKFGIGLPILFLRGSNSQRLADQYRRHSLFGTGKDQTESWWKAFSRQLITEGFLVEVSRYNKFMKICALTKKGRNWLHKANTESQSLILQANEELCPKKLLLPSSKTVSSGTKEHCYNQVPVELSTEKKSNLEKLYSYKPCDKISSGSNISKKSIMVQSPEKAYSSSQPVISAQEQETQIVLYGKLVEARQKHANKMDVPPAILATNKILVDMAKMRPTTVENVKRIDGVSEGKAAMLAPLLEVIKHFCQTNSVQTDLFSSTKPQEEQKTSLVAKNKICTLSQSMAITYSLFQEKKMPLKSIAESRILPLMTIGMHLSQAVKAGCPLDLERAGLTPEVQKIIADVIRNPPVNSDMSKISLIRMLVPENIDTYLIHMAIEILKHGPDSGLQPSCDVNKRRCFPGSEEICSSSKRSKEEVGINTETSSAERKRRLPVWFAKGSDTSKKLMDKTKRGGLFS

Each molecule was assayed against Bifunctional 3'-5' exonuclease/ATP-dependent helicase WRN (Homo sapiens) (UniProt Q14191) (assay: qHTS for Inhibitors of WRN Helicase). Conditions: WRN helicase unwinding, fluorescent forked duplex, kinetic; activity change, negative = inhibition: at 114 µM (top of the series) unless noted.
Outline: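 Primary qHTS, 1536-well format. 20 nM WRN + compound, 15 min RT; start with 100 nM forked fluorophore/quencher duplex, 2 mM ATP (final); kinetic read ex 525/em 598 nm.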
% is set by controls: 0 for no effect and ±100 for the full control effect; potency is the fitted concentration of half-maximal effect.
Note: nearly all actives have a fitted effect of over 55% in size.

SMILES	Potency	activity change, negative = inhibition
COc1ccc(/C=C/C(=O)Nc2cccc(S(=O)(=O)N3CCOCC3)c2)cc1OC	inconclusive: 79.4 µM [inhibitor, partial curve]	
CCCc1ccc(O)c(N=Cc2cc(Br)cc(OCC)c2O)c1	inconclusive: 44.7 µM [inhibitor, partial curve]	
COc1ccccc1C(=O)N/C(N)=N/c1nc2ccccc2o1	inconclusive: 89.1 µM [inhibitor, single point]	
Cc1ccc(C2Nc3ccc4ccccc4c3C3=C2C(=O)CC(C)(C)C3)o1 (centres undefined)		inactive: -7.25%
O=S(=O)(c1ccccc1)N1N=C(c2ccccc2)CC1c1ccccc1 (centres undefined)		inactive: 4.96%
CCn1c(COc2ccccc2)nnc1SCC(=O)NC1CC1		inactive: -3.67%
Cc1ccc(-c2nnc(NC3CCCC3)s2)cc1	inconclusive: 10 µM [inhibitor, full curve]	
O=C(Cn1c2ccccc2c(=O)c2ccccc21)N/N=C/c1cc([N+](=O)[O-])ccc1N1CCCCCC1	active: 10.6 µM	
CCOc1ccccc1-n1c(SCC(=O)Nc2ccccc2C(=O)O)nc2ccccc2c1=O		inactive: -19.3%
Oc1c(Br)cc(/C=N/n2c(-c3ccccc3)n[nH]c2=S)c(O)c1Br	inconclusive: 56.2 µM [inhibitor, partial curve]	
N#C/C(=C\c1ccc(OCc2ccc(Cl)cc2)cc1)C(=O)Nc1cccc(C(=O)O)c1	inconclusive: 50.1 µM [inhibitor, partial curve]	
Cc1ccc2cc(/C=N/NC(=O)c3ccccc3O)c(Cl)nc2c1	active: 50.1 µM	
O=c1[nH]c(=O)c2[nH]c(=S)[nH]c2[nH]1	inconclusive: 50.1 µM [inhibitor, partial curve]	
CN(CCCN1CCCCC1)C(=O)c1cc(COc2ccc(F)cc2F)on1	inconclusive: 89.1 µM [inhibitor, single point]	
CCOc1ccccc1-c1nc(-c2ccc(NC(=O)Cc3ccc(OC)cc3)cc2)no1		inactive: -28.1% [at 57.1 µM]
O=C(CN1C(=O)/C(=C\c2ccccc2Cl)Oc2ccccc21)NCc1cccnc1	inconclusive: 22.4 µM [inhibitor, single point]	
Cc1ccc(-c2ccc(CCC(=O)O)n2Cc2ccco2)cc1	inconclusive: 18.9 µM [inhibitor, partial curve]	
Cc1ccc(-c2cc(C(=O)Nc3ccc(S(=O)(=O)N4CC(C)OC(C)C4)cc3)[nH]n2)c(O)c1 (centres undefined)	inconclusive: 56.2 µM [inhibitor, partial curve, poor fit]	
O=C(NC1CCCC1)C1C(c2ccc(C(F)(F)F)cc2)=Nc2ccccc2N1C(=O)c1cccc2ccccc12 (centres undefined)		inactive: 2.46%
Cc1cc(NS(=O)(=O)c2ccc(Nc3nc(-c4sc(N)nc4C)cs3)cc2)no1	active: 25.1 µM	
COc1ccc2nc(-c3ccco3)c(-c3ccco3)nc2c1	active: 44.7 µM	
CCCCC#Cc1ccc(C(=O)NNC(=O)Nc2cc(Cl)cc(Cl)c2)o1		inactive: 4.51%

SMILES	Potency	activity change, negative = inhibition
O=C(/C=C1\NC2(CCCC2)Cc2ccccc21)C(=O)N/N=C/c1ccc(O)c(O)c1	inconclusive: 28.2 µM [inhibitor, single point]	
CC1CCN(C(=O)c2cc(-c3ccco3)on2)CC1	inconclusive: 89.1 µM [inhibitor, single point]	
COc1ccccc1NC(=O)CN1C(=O)CC(C)S(=O)(=O)c2ccccc21 (centres undefined)	inconclusive: 89.1 µM [inhibitor, single point]	
Cc1nc2ncnn2c(N2CCN(C(=O)Cc3cccs3)CC2)c1C	inconclusive: 50.1 µM [inhibitor, partial curve]	
CCOc1ccc2[nH]c(=O)c(C(c3nnnn3Cc3ccco3)N3CCCC(C)C3)cc2c1 (centres undefined)	inconclusive: 44.7 µM [inhibitor, partial curve]	
COc1cc(/C=C2\NC(=S)NC2=O)ccc1OCc1cccc(C(=O)O)c1	inconclusive: 56.2 µM [inhibitor, partial curve]	
Cc1ccsc1C=Nc1ccc(O)cc1	active: 35.5 µM	
O=C(COC(=O)CCC(=O)c1ccc(Cl)cc1)NCc1ccco1	inconclusive: 17.8 µM [inhibitor, full curve]	
CS(=O)(=O)c1ccc(S(=O)CC(=O)Oc2ccc(Cl)cc2)c([N+](=O)[O-])c1 (centres undefined)	inconclusive: 44.7 µM [inhibitor, partial curve]	
CNC(=O)COC(=O)c1cc(-c2ccco2)nc2ccccc12	active: 79.4 µM	
O=C(COC(=O)C1CC2C=CC1C2)NCc1ccco1 (centres undefined)	inconclusive: 15 µM [inhibitor, partial curve]	
C=CC(=O)Nc1ccc(N(C)c2ccnc(Nc3ccc(N4CCN(C)CC4)cc3)n2)cc1	inconclusive: 50.1 µM [inhibitor, partial curve]	
Cc1ccc(OCC(=O)N/N=C\c2cccn2C)c([N+](=O)[O-])c1	inconclusive: 89.1 µM [inhibitor, single point]	
CSc1nc(Oc2cccc(C(F)(F)F)c2)cc(C(F)(F)F)n1		inactive: 3.36%
Cc1cccc(NC(=O)CCC(=O)N/N=C/c2cc([N+](=O)[O-])ccc2O)c1	inconclusive: 79.4 µM [inhibitor, single point]	
O=C(CN1C(=O)NC2(CCOc3ccccc32)C1=O)N1CCCCC1 (centres undefined)	inconclusive: 12.6 µM [inhibitor, single point]	
Cc1ccc(S(=O)(=O)/N=C2\C=C(Nc3ccc(O)cc3)C(=O)c3ccccc32)cc1	inconclusive: 39.8 µM [inhibitor, full curve, poor fit]	
CCCc1cc(=O)[nH]c(SCC(=O)NCCN2C(=O)CSC2=O)n1	inconclusive: 22.4 µM [inhibitor, single point]	
CCC(C)(C)NC(=O)c1cccc(NC(=O)C(C)C)c1		inactive: -24.5%
COc1ccccc1Nc1nc(NCCCN(C)C)nc(N)c1[N+](=O)[O-]	active: 79.4 µM	
Cn1c(SCC(=O)Nc2sccc2C#N)nnc1C1CC1	inconclusive: 44.7 µM [inhibitor, full curve, poor fit]	
COc1cc(C(=S)NC2CCCCC2)ccc1O	inconclusive: 10 µM [inhibitor, partial curve]	

Of the compounds above, these contain a CF3 group:
SMILES	Potency	activity change, negative = inhibition
O=C(NC1CCCC1)C1C(c2ccc(C(F)(F)F)cc2)=Nc2ccccc2N1C(=O)c1cccc2ccccc12 (centres undefined)		inactive: 2.46%
CSc1nc(Oc2cccc(C(F)(F)F)c2)cc(C(F)(F)F)n1		inactive: 3.36%
